A short description of this data set: Relative susceptibility of the dyes to immobilization on a solid support. Conditions: relative scale of 1 to 10 where 10 is best (1 = no detectable amount of dye bound); 2% carbonate solution; Method 2. The protocol: The relative susceptibilities of the dyes to immobilization on a solid support were determined from the intensity of dye covalently bound to regenerated cellulose dialysis membrane. The immobilization data summarized in the Table below were taken from measurements in 2% carbonate solution normalized to an arbitrary scale of 1 to 10, where 1 represents no detectable amount of dye bound and 10 represents the greatest quantity of dye bound. The conditions of coupling of the dyes to the regenerated cellulose were according to immobilization Method 2 described below. Carbazine dyes immobilized under these conditions yield a uniform fluorescent blue dialysis membrane that changes to fluorescent orange upon acidification. As a point of reference, the carbazine dye of Example 3 immobilized on a "SPECTRAPOR 1" membrane (molecular weight cutoff 6000 to 8000) yields a blue membrane with an absorbance at 660 nm of greater than 1 at pH>9.
For the compound `O=C1C=CC2(C=C1)C1=CC(=O)C=CC1=Nc1ccc(O)cc12` [Example 1, 7-hydroxyspiro[acridine-9,1'-cyclohexa-2',5'-diene]-2(9H),4'-dione], the Immobilization was 10. Then `CC1=CC(=O)C=C(C)C12C1=CC(=O)C=CC1=Nc1ccc(O)cc12` [Example 2], with 6. In turn, `CC1=CC(=O)C(C)=C(C)C12C1=CC(=O)C=CC1=Nc1ccc(O)cc12` (stereo not shown) [Example 3] yielded an Immobilization of 6. The figure for `CC1=C(C)C2(C3=CC(=O)C=CC3=Nc3ccc(O)cc32)C(C)=C(C)C1=O` [Example 4, 7-hydroxy-2',3',5',6'-tetramethylspiro[acridine-9,1'-cyclohexa-2', 5'-diene]-2(9H), 4'-dione] is 4. The figure for `O=C1C=CC2=Nc3ccc(O)cc3C3(C=CC(=O)C4=C3CCCC4)C2=C1` (stereo not shown) [Example 5] is 6. Consider `CC1=CC(=O)C=C(C(C)C)C12C1=CC(=O)C=CC1=Nc1ccc(O)cc12` (stereo not shown) [Example 6], for which the Immobilization is listed as 6.

Turning to `CC(C)(C)C1=CC2(C=CC1=O)C1=CC(=O)C=CC1=Nc1ccc(O)cc12` (stereo not shown) [Example 7], the Immobilization is 1.
